Record: PubChem BioAssay AID652272 (Drosophila RNAi Screening Center, 2013)
Assay: 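Genes whose knock-down decreases or increases Hedgehog reporter output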 (primary screen). Cell system: Drosophila clone 8 (Cl8) cells. Reagent: long dsRNA against Drosophila genes. Measurement: 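Plate reader light from a firefly reporter under a ptc promoter fragment that responds to Hedgehog, with Renilla light as transfection reference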. Reading the numbers: firefly Hh reporter signal: higher = more ptc reporter light; Renilla reference signal: higher = more Renilla control light. Active means: 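Called a hit if the two-replicate mean z-score lies below -2 or above +3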. Meaning of the calls: active = hit: reporter lowered or raised; inactive = not a hit.
In all, the deposit lists about 21,000 reagents; below is an unselected part of those that have a named target and a result. Of all reagents, 503 (2.4%) were called active. 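Raw plate light values, not normalised; calls rest on replicate z-scores that were not deposited; hits include reporter decreases as well as increases.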 A plus sign joins genes that one reagent is predicted to hit. Reagent sequences are not shown. Not stated in the record: the amount of reagent, the time to read-out.

no.	gene knocked down	PubChem SID	firefly Hh reporter signal, replicate 1	firefly Hh reporter signal, replicate 2	firefly Hh reporter signal, replicate 3	Renilla reference signal, replicate 1	Renilla reference signal, replicate 2	call
1	Pfdn2 (Prefoldin 2)	SID104190410	50524	33786	54361	3015	3659	inactive
2	CG14742	SID104194754	1.30e5	1.75e5		3781	4326	inactive
3	CG12164	SID104185907	2.10e5	1.13e5		7360	4616	inactive
4	CG9813	SID104196361	1.56e5	85024		5772	2135	inactive
5	l(2)k05819 (lethal (2) k05819)	SID104180618	1.01e5	74647		4592	3155	inactive
6	RpS13 (Ribosomal protein S13)	SID104183211	20048	19770		1778	1875	active
7	Or71a (Odorant receptor 71a)	SID104191036	92656			5575	2386	inactive
8	CG3085	SID104184127	83384	51483		3419	2049	inactive
9	CG16853	SID104181669	75482	41649		2105	3824	inactive
10	roq (roquin)	SID104190019	93690	44523		3287	1517	inactive
11	Cyp309a2 (Cytochrome P450 309a2)	SID104180318	91916	91142		2032	1977	inactive
12	gprs	SID104186553	87187	38998		2370	2874	inactive
13	CG14391	SID104194642	82656	1.24e5		2549	3480	inactive
14	CG7448 (retired record)	SID104191620	1.27e5	1.02e5		5741	4694	inactive
15	CG13306	SID104189768	49895	50080		4347	3765	inactive
16	CG30114	SID104185499	86640	1.38e5		3040	6704	inactive
17	Srp54k (Signal recognition particle 54k)	SID104191081	57206	44018		4714	3509	inactive
18	aPKC (atypical protein kinase C)	SID104185307	1.46e5	2.63e5		3792	10538	inactive
19	aPKC (atypical protein kinase C)	SID104187431	68557	43762		1328	3387	inactive
20	Not10 (CCR4-NOT transcription complex subunit 10)	SID104193921	1.05e5	98045		4720	3894	inactive
21	CG13044	SID104189717	1.35e5			3034	4011	inactive
22	Uhg2 + snoRNA:Me18S-G1620 + snoRNA:U14:30Ea	SID104180892	4.48e5	1.72e5		25955	9164	inactive
23	sNPF-R (short neuropeptide F receptor)	SID104190628	92246	1.31e5		3285	3645	inactive
24	CG8617	SID104187015	73217	50293		1665	3989	inactive
25	gek (genghis khan)	SID104184480	1.26e5	45776		4485	1668	inactive
26	CG14505	SID104186268	89523	67932		1947	4966	inactive
27	CG12321	SID104194291	1.54e5	1.33e5		6407	5139	inactive
28	CG32017	SID104196975	4.43e5	1.71e5		22928	3993	inactive
29	Snr1 (Snf5-related 1)	SID104192161	1.09e5	95789		4835	4186	inactive
30	CG12010	SID104188010	50329	52882		1564	3987	inactive
31	CG9988	SID104196379	1.04e5	89458		3623	2596	inactive
32	Ocrl (Oculocerebrorenal syndrome of Lowe)	SID104198368	1.42e5	1.04e5		3572	3424	inactive
33	CG34289	SID104193417	49584	2.59e5		13057	5738	inactive
34	His2B:CG33894 + His2B:CG33872 + His2B:CG33902 + 20 more	SID104201057	16034	22516		349	1124	inactive

7 entries already listed, sorted by “firefly Hh reporter signal, replicate 1”, high to low.
gene knocked down	PubChem SID	firefly Hh reporter signal, replicate 1	firefly Hh reporter signal, replicate 2	firefly Hh reporter signal, replicate 3	Renilla reference signal, replicate 1	Renilla reference signal, replicate 2	call
Uhg2 + snoRNA:Me18S-G1620 + snoRNA:U14:30Ea	SID104180892	4.48e5	1.72e5		25955	9164	inactive
aPKC (atypical protein kinase C)	SID104185307	1.46e5	2.63e5		3792	10538	inactive
CG13044	SID104189717	1.35e5			3034	4011	inactive
Not10 (CCR4-NOT transcription complex subunit 10)	SID104193921	1.05e5	98045		4720	3894	inactive
CG30114	SID104185499	86640	1.38e5		3040	6704	inactive
aPKC (atypical protein kinase C)	SID104187431	68557	43762		1328	3387	inactive
Srp54k (Signal recognition particle 54k)	SID104191081	57206	44018		4714	3509	inactive

More reagents follow.
no.	gene knocked down	PubChem SID	firefly Hh reporter signal, replicate 1	firefly Hh reporter signal, replicate 2	firefly Hh reporter signal, replicate 3	Renilla reference signal, replicate 1	Renilla reference signal, replicate 2	call
35	CG17122	SID104190037	1.08e5	1.47e5		4150	4244	inactive
36	CG18467	SID104186550	74932	50460		2048	3384	inactive
37	epsilonCOP (Coat Protein (coatomer) epsilon)	SID104181795	95393	1.14e5		3817	3537	inactive
38	Acsf3 (Acyl-CoA synthetase family member 3)	SID104197938	84172	2.67e5		3117	9725	inactive
39	CG18130	SID104199582	73868	2.37e5		1906	8105	inactive
40	Xe7	SID104192099	1.01e5	1.29e5		3749	3184	inactive
41	Or9a (Odorant receptor 9a)	SID104198484	86134	1.72e5		2699	6200	inactive
42	eIF3f2 (eukaryotic translation initiation factor 3 subunit f2)	SID104184695	1.05e5	49722		1888	4827	inactive
43	CG13516	SID104183951	1.51e5	77408		3716	6265	inactive
44	CngA (Cyclic nucleotide-gated ion channel subunit A)	SID104186372	58423	36456		1488	2755	inactive
45	CngA (Cyclic nucleotide-gated ion channel subunit A)	SID104187154	93184	51664		2208	3350	inactive
46	ATPsynG (ATP synthase, subunit G)	SID104182720	4.77e5	1.35e5	78227	21237	3522	active
47	Thor	SID104180562	1.18e5	89937		5664	3865	inactive
48	CG15514	SID104194845	1.26e5	66466		3232	2380	inactive
49	CG12971	SID104191473	95238	1.22e5		3536	3441	inactive
50	CG5188	SID104182618	1.19e5	79921		3043	6028	inactive
51	CG13589	SID104184017	1.10e5	99627		2771	8204	inactive
52	ksh (kish)	SID104199346	1.08e5	1.46e5		4385	6816	inactive
53	AOX1 (Aldehyde oxidase 1)	SID104195131	1.73e5	74528		6054	979	inactive
54	danr (distal antenna-related)	SID104194443	5.00e5	91641		25158	2882	inactive
55	T48 (Transcript 48)	SID104196670	96404	94288		3192	2592	inactive
56	unc-104 (uncoordinated-104)	SID104187502	1.13e5	74530		3222	4884	inactive
57	Ciao1	SID104185962	90499	83216		3813	3181	inactive
